Compound in the assay: CN[C@@H]1C[C@H]2O[C@@](C)([C@@H]1OC)n1c3ccccc3c3c4c(c5c6ccccc6n2c5c31)C(=O)NC4 [staurosporine]
Description: log2 fold change of tryptic peptide abundance, ligand vs vehicle (limited proteolysis) (log2 ratio); higher = more trypsin-susceptible (destabilized). The following applies: ligand concentration: 20 uM; sample: K562 cleared lysate; digestion: 4 min, 22 C (HT-PELSA RT4min, Orbitrap Astral).

Amino acid sequences for entries named in this document (tags omitted). A change or cut given only in a name is not applied to a line headed by its entry.
UniProt Q03252: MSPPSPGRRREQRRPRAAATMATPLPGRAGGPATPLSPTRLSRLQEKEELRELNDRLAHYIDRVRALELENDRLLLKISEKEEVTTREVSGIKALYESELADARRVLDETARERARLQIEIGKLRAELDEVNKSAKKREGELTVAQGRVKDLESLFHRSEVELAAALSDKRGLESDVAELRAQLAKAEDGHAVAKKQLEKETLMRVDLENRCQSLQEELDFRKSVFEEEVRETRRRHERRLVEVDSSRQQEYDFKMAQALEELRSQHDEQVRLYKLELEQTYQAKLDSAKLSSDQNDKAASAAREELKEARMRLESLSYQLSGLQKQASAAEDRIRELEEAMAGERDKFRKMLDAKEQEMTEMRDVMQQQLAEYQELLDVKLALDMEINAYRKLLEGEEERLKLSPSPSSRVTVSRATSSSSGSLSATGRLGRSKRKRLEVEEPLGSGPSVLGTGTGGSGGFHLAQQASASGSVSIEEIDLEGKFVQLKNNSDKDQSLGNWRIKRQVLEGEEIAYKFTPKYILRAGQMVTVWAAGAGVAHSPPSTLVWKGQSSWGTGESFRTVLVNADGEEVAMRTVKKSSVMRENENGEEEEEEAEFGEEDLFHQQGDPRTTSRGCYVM
UniProt Q06609, whole entry: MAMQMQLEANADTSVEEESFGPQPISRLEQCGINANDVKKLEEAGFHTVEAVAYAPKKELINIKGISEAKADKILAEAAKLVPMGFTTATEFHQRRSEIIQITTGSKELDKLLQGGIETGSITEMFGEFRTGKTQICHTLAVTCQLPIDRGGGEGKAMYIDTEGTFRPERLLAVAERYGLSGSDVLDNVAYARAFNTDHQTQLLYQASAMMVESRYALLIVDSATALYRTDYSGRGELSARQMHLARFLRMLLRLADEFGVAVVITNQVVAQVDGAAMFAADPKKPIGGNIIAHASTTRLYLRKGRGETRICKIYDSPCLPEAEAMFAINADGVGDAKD
UniProt Q09328: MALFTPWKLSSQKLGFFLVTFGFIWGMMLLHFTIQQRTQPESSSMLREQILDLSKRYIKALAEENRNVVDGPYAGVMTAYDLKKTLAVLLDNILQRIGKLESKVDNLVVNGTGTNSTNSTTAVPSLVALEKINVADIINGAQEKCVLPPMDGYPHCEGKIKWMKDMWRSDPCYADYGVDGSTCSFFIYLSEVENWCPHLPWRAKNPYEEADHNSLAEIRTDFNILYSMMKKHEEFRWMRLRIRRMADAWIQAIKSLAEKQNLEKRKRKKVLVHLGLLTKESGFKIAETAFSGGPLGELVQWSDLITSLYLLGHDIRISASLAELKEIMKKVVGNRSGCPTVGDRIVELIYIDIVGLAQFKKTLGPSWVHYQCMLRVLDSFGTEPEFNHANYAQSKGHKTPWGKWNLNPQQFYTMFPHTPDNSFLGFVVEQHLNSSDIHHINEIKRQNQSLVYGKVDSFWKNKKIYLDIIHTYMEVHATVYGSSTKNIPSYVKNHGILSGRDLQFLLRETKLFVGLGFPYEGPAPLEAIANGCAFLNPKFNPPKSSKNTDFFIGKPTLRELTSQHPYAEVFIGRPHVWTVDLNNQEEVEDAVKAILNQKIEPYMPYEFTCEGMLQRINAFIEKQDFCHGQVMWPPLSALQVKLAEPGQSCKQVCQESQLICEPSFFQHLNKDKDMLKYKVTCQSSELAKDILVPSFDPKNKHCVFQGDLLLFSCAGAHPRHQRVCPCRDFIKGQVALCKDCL
UniProt Q02790: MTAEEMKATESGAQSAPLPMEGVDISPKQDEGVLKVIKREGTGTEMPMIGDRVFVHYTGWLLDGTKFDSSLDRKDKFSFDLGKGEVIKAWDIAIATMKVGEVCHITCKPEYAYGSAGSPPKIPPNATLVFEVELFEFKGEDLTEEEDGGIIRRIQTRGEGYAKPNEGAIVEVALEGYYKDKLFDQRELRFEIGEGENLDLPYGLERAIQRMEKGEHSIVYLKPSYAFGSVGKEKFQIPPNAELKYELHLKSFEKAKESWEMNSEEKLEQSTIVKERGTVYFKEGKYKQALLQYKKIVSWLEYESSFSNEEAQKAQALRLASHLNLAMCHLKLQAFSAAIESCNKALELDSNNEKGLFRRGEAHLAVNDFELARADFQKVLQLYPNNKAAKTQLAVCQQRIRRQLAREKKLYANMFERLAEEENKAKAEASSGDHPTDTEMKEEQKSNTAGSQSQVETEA
UniProt Q12894: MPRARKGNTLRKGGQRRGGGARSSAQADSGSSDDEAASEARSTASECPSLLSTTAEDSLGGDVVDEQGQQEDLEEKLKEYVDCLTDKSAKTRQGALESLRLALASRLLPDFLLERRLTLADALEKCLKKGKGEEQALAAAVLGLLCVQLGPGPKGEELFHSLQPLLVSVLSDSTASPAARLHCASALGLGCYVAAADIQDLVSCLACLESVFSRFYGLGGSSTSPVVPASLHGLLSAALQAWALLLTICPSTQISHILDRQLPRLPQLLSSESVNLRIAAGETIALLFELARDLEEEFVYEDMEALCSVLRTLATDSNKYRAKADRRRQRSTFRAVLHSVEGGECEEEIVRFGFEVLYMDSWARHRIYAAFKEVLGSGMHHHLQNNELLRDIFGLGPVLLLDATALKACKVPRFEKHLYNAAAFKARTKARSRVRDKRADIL
UniProt P98171: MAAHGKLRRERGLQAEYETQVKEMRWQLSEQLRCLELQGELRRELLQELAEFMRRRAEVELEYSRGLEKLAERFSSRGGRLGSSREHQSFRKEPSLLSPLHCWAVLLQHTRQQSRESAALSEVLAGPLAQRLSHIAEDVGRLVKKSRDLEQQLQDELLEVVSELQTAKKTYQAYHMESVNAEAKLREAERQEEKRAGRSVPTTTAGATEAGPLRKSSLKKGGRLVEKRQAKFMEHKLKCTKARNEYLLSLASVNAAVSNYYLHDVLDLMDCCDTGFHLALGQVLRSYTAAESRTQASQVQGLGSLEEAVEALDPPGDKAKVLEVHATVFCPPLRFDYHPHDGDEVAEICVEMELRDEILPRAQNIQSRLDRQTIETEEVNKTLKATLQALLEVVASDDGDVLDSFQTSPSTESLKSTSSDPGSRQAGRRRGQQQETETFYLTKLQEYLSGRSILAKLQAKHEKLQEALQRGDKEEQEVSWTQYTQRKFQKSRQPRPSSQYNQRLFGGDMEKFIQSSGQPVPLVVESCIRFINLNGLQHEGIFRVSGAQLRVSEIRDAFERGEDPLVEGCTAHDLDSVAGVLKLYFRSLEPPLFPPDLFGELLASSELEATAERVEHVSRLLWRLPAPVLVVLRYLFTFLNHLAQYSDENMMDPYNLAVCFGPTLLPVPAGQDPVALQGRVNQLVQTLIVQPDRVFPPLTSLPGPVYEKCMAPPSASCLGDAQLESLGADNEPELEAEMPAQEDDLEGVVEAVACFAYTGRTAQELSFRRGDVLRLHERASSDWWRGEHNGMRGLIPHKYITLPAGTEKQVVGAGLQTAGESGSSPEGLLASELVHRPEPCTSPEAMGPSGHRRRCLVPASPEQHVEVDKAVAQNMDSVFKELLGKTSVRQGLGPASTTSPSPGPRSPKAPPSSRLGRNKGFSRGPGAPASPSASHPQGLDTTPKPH
UniProt Q01650: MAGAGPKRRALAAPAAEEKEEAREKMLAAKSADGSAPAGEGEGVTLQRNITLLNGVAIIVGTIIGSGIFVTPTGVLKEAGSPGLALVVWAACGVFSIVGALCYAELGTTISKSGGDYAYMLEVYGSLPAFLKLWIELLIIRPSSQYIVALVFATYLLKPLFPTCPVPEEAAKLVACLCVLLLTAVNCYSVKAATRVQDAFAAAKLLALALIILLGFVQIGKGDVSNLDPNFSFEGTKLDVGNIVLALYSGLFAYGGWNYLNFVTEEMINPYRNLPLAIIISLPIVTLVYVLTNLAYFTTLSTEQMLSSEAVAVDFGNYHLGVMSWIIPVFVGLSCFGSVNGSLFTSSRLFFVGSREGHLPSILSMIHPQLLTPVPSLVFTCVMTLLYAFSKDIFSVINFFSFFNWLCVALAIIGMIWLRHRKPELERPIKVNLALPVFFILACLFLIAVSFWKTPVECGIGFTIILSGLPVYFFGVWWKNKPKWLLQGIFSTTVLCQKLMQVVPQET
UniProt Q04446: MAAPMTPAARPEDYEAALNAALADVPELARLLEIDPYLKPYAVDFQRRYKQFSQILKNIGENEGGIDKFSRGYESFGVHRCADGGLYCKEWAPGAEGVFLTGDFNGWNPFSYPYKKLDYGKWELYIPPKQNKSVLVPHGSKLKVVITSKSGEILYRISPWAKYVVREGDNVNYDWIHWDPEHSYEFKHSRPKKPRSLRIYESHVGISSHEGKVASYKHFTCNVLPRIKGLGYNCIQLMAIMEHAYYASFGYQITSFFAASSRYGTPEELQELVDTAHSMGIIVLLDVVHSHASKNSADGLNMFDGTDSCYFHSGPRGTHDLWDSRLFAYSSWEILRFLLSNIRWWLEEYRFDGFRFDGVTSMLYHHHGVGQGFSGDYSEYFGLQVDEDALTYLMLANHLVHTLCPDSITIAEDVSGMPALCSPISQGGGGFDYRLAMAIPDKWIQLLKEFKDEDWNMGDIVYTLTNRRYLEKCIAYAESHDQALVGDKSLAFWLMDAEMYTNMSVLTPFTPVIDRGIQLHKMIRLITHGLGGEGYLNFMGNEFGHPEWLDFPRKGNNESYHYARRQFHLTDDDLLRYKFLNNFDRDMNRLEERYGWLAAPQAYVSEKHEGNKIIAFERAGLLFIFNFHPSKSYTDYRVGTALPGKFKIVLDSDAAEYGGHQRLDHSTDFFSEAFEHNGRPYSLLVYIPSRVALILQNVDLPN
UniProt Q12797: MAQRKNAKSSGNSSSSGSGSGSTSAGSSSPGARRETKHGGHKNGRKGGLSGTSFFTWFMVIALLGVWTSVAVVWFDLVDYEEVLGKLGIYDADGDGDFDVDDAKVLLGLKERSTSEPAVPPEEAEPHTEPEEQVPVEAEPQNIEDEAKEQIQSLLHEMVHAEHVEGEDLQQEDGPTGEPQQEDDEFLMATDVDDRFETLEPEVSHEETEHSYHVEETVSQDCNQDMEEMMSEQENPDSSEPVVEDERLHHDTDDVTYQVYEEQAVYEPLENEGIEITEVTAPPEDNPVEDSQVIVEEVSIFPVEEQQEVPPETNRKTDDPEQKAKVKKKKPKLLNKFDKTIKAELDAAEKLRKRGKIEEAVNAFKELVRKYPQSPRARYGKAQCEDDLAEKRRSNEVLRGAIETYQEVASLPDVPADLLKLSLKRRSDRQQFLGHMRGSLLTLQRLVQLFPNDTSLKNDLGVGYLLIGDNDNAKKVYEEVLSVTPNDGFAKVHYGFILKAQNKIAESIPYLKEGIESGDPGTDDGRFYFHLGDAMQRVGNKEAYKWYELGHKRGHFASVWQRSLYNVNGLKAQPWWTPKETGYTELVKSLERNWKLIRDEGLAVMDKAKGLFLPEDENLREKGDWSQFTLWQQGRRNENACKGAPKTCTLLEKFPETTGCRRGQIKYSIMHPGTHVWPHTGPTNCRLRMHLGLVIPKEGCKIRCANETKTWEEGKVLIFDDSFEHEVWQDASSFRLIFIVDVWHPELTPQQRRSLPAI
UniProt Q00325: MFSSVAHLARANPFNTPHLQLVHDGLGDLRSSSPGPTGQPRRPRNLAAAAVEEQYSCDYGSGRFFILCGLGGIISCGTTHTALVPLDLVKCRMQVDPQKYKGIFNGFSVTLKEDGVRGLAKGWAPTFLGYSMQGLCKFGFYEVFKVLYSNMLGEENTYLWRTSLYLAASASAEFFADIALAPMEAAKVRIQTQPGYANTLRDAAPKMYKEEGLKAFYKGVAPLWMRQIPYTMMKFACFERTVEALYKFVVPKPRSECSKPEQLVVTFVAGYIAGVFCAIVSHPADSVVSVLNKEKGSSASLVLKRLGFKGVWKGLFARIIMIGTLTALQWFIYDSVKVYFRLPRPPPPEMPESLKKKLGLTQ
UniProt Q01628, whole entry: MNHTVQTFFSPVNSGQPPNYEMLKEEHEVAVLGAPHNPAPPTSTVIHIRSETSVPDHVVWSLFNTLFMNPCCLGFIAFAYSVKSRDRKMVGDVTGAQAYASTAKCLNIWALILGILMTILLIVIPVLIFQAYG
UniProt Q13123, whole entry: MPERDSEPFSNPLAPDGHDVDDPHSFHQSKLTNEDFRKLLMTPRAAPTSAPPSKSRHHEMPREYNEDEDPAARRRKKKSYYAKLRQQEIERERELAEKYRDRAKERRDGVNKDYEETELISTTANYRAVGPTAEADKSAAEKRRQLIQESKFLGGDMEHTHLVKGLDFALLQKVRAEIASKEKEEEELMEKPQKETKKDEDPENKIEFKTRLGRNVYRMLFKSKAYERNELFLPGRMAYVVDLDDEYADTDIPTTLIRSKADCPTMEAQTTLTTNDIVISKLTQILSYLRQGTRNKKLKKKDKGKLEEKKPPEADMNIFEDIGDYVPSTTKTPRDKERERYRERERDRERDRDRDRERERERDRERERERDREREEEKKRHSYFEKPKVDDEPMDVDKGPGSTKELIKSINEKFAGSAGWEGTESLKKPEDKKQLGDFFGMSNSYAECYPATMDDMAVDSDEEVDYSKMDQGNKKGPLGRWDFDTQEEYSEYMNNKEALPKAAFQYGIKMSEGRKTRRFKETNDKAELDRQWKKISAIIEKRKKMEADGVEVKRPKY

We go through 28 targets from the supplement of paper PMC12819154, “High-throughput peptide-centric local stability assay extends protein–ligand identification to membrane proteins, tissues and bacteria” (Nature Structural & Molecular Biology, 2025).

This is one part of the list. Most entries show no effect beyond the scatter of the controls.

Take “BPTF (peptide sequence: MTSIEREEK, peptide start residue: 978) (UniProt Q12830)”: the log2 fold change turned out to be 1.13. For “LMNB2 (peptide sequence: EQEMTEMR, peptide start residue: 357) (UniProt Q03252)”, the log2 fold change was found to be 0.44.

As to “UniProt Q06730 (peptide sequence: NTLSHHEETLQHEK, peptide start residue: 197)”, the log2 fold change turned out to be 0.455. In the case of “RING1 (peptide sequence: RSLRPDPNFDALISK, peptide start residue: 98) (UniProt Q06587)”, the log2 fold change is 0.281.

Consider “RAD51 (peptide sequence: KLEEAGFHTVEAVAYAPKK, peptide start residue: 40) (UniProt Q06609)”, for which the log2 fold change is -0.143. With “FOXK1 (peptide sequence: QSPGPALAR, peptide start residue: 100) (UniProt P85037)” the figure was 0.325; with “MGAT5 (peptide sequence: NTDFFIGKPTLR, peptide start residue: 547) (UniProt Q09328)”, 0.287; with “FKBP4 (peptide sequence: AEASSGDHPTDTEMK, peptide start residue: 427) (UniProt Q02790)”, -0.194. In the case of “UniProt P98168 (peptide sequence: SSLYIHSK, peptide start residue: 433)” it was 0.306; in that of “UniProt P85299 (peptide sequence: SSPAPHSGPCPSR, peptide start residue: 309)”, 0.951. With “IFRD2 (peptide sequence: LLPDFLLER, peptide start residue: 171) (UniProt Q12894)” the figure was 0.095. For the target “CDR2 (peptide sequence: EIFSCIKK, peptide start residue: 428) (UniProt Q01850)”, the log2 fold change was 0.344. With “UniProt Q12905 (peptide sequence: ILSHGGFRK, peptide start residue: 320)” the figure was 0.48. In the case of “HNRNPA0 (peptide sequence: RGFGFVYFQNHDAADK, peptide start residue: 139) (UniProt Q13151)” it was -0.182; in that of “ARHGAP4 (peptide sequence: TYQAYHMESVNAEAK, peptide start residue: 170) (UniProt P98171)”, -0.26. Take “SLC7A5 (peptide sequence: ALAAPAAEEKEEAREK, peptide start residue: 10) (UniProt Q01650)”: the log2 fold change was determined as 0.146. Turning to “RUNX1 (peptide sequence: LSELEQLR, peptide start residue: 198) (UniProt Q01196)”, the log2 fold change is 0.661. In the case of “GBE1 (peptide sequence: KGNNESYHYAR, peptide start residue: 554) (UniProt Q04446)” it was -0.135; in that of “EXOSC10 (peptide sequence: KAQNIMESFENPFR, peptide start residue: 680) (UniProt Q01780)”, -0.21; in that of “CLTC (peptide sequence: VSQPIEGHAASFAQFK, peptide start residue: 190) (UniProt Q00610)”, -0.573.

On to “ASPH (peptide sequence: GLFLPEDENLR, peptide start residue: 610) (UniProt Q12797)”, for which the log2 fold change was -0.255. With “MEF2A (peptide sequence: YTEYNEPHESR, peptide start residue: 69) (UniProt Q02078)” the figure was 0.145; with “SLC25A3 (peptide sequence: GVAPLWMR, peptide start residue: 219) (UniProt Q00325)”, 0.198; with “IFITM3 (peptide sequence: EEHEVAVLGAPHNPAPPTSTVIHIR, peptide start residue: 25) (UniProt Q01628)”, -0.0133. With “TRAP1 (peptide sequence: FFIDQSK, peptide start residue: 425) (UniProt Q12931)” the figure was 0.304; with “IK (peptide sequence: AVGPTAEADKSAAEK, peptide start residue: 128) (UniProt Q13123)”, -0.163; with “HMGCS1 (peptide sequence: LPATAAEPEAAVISNGEH, peptide start residue: 503) (UniProt Q01581)”, -0.0512. With “NFATC3 (peptide sequence: VHIPQPSGK, peptide start residue: 570) (UniProt Q12968)” the figure was 0.629.
